This data set concerns Kp1131115 wild type and Kp1131115ΔwbbYZ strain. As to the kind of experiment: FACS binding to Kp1131115 wild type and Kp1131115ΔwbbYZ. The following applies: concluded from wbbYZ knockout. Also noted: species or system Klebsiella pneumoniae. From the text:
Klebsiella pneumoniae wbbYZ gene locus encodes D-Galactan II domain in LPS structure, which defines O1 serotype over O2.
For orientation: A flow cytometer gives signals particle by particle.

The values that follow come from patent publication US12018068B2, “Anti-O1 antibodies and uses thereof” (priority 2016, dated 2024).

B1: 54H7: mouse hybridoma anti-O1 antigen antibody (Ms IgG3), VH SEQ ID NO:47, VL SEQ ID NO:48 (antibody, V domains shown)
VH: QVHLQQPGSELVRPGASVTLSCKASGYTFTNYWMQWVKQRPGQGLEWIGNIYPGSGNTNYDEKFRSKATLTVDTSSSTAYMHLTSLTSEDSAVYYCTRNWNFDYWGQGTTLTVSS
VL: DIQMTQSPSSLSASLGERVSLTCRASQDIGSSLNWLQQEPDGTIKRLIYATSSLDSGVPKRFSGSRSGSEYSLTISSLEAEDFVDYYCLQHTDSPYTFGGGTKLELK
modifications: 54H7 VH; 54H7 VL Amino Acid Sequence
In the case of B1, the “domain of O1 LPS antigen bound” value is “bind to the D-Galactan II domain”.

B2: KPE33: human anti-K. pneumoniae O1 antigen antibody, VH SEQ ID NO:8, VL SEQ ID NO:9, isolated as IgG2 from donor #262 (antibody, V domains shown)
VH: EVQLVESGGALVQPGGSLRLSCAVSGFIFDDYAIHWVRRAPGKGLEWVSGIAWKSGATNYADSVKGRFAISRDNSKKSMYLQMNSLGTEDTALYYCTRRRASGDDTFYYFDYWGQGTLVTVSS
VL: EIVLTQSPATLSLSPGERATLSCRASQNVNTNLAWYQQRPGQSPRLLIYDASTRAAGLPARFSGSGSGTDFTLTISSLEPEDFAVYYCQQCTNWRYTFGQGTKLEIK
modifications: KPE33 VH Amino Acid Sequence; KPE33 VL Amino Acid Sequence
As to B2, the “domain of O1 LPS antigen bound” value is listed as “bind to the D-Galactan II domain”.
